The whole screen tested about 320,000 compounds, of which about 2,100 (0.66%) were called active. This list was built around the results that the source calls inconclusive (neither active nor inactive); the mix of calls is not that of the screen. The call rests on the fitted dose curve; in most records, active means well fitted inhibition curve with a large enough effect in the signal ratio, with a control signal flat (not every such curve was filed as active); inconclusive means small, poorly fitted or top-dose-only effect, or effect the other way, or a change in a side signal; inactive means flat fitted curve, though single readings scatter; the % refers to the signal ratio. Potencies of inconclusive entries are doubtful fits and often do not repeat.
Test: qHTS Assay for Lipid Storage Modulators in Drosophila S3 Cells
Conditions: BODIPY lipid droplet fluorescence, 18-24 h, cells fed with added oleic acid; lipid storage change, negative = inhibition: at 46.1 µM (top of the series) unless noted
Procedure, shortened: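 Drosophila S3 cells got compounds at several concentrations plus oleic acid (400 uM solution). Laser-scanning cytometry with 488 nm excitation read lipid droplets at 500-530 nm and cells at 575-640 nm. Percent activity was relative to 20 uM Triacsin C.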
On the % scale 0 is the no-effect control and ±100 the full control effect; potency means the concentration at half of the fitted maximal effect.

Row | SMILES | lipid storage change, negative = inhibition | Potency
1 | COc1ccc(NC(=O)/C(=C\c2ccc(F)cc2)NC(=O)c2ccco2)cc1 | inconclusive: 70.2% | 
2 | CC(C)C[C@H](NC(=O)NCc1ccc(Cl)cc1)C(=O)O |  | active: 6.51 µM
3 | CCOC(=O)c1c(CN2CCOCC2)n(-c2ccccc2)c2ccc(O)cc12 |  | inconclusive: 29.1 µM [activator, single point]
4 | O=C(N/N=C/c1ccc(OC(F)F)cc1OC(F)F)c1ccc(Br)cc1 |  | inconclusive: 1.64 µM [activator, full curve]
5 | COc1ccccc1-c1cc(C(F)(F)F)nc(N2CCCCC2)n1 | inconclusive: 247% | 
6 | COc1cc(C(C)=O)ccc1OCC(O)CN1CCN(S(=O)(=O)c2ccccc2)CC1 (stereo not given) | inconclusive: 80% | 
7 | C/C(CC(O)c1ccc2ccccc2n1)=N/O (stereo not given) |  | active: 10.3 µM
8 | NC(=O)c1ccc(NC(=O)CSc2nc3ccccc3c(=O)n2CCCN2CCOCC2)cc1 | inconclusive: -30.8% | 
9 | CCC(=O)Oc1ccc(C(=O)Nc2ccc3c(c2)OCO3)cc1 | inconclusive: -14.6% | 
10 | O=c1c2ccccc2c(C=NC2CCS(=O)(=O)C2)c(O)n1-c1ccccc1 (stereo not given) |  | inconclusive: 0.13 µM [activator, full curve]
11 | CCOC(=O)C(C)(C)N(Cc1ccc(Cl)cc1)S(=O)(=O)c1ccc(Cl)c([N+](=O)[O-])c1 | inactive: 15.5% | 
12 | CCOC(=O)C1=C(C)NC(C)=C(C(=O)OCC)C1C(=O)OCC(=O)N(C)C | inconclusive: -0.0164% | 
13 | COc1ccc(-c2cn3cccnc3n2)cc1NC(=O)c1cc(OC)c(OC)c(OC)c1 | inconclusive: -13.3% | 
14 | CN1CCN(C(=O)c2cc3ccccc3cc2O)CC1 | inconclusive: 32% | 
15 | COc1ccc2cc(CCNC(=O)c3ccc4c(c3)OCO4)c(=O)[nH]c2c1 | inconclusive: 17.2% | 
16 | Cc1ccccc1C(=O)N1CCC(C(=O)Nc2ccc3c(c2)OCO3)CC1 | inconclusive: 24.2% | 
17 | CC(=O)N1CCc2cc(S(=O)(=O)CCC(=O)N3CCN(c4ccccn4)CC3)ccc21 | inactive: 11.4% | 
18 | O=C(c1cc(-c2ccc(Cl)cc2Cl)on1)N1CCCC1 |  | inconclusive: 2.31 µM [activator, single point]
19 | O=C(Nc1ccc(Br)cc1F)C1CC(=O)N(C2CCCCC2)C1 (stereo not given) | inconclusive: -60.5% | 
20 | CCOC(=O)C1=C(N)Oc2c(oc(CO)cc2=O)C1c1ccccc1 (stereo not given) | inconclusive: -0.023% | 
21 | CCC(=O)N1CCCc2cc(S(=O)(=O)NCc3cccs3)ccc21 |  | inconclusive: 11.6 µM [activator, partial curve]
22 | N/C(=N\OC(=O)CCCN1C(=O)c2ccccc2C1=O)c1ccccn1 | inconclusive: 49.3% | 
23 | COc1cccc(OC)c1NC(=O)C1CCCN1C(=O)NCc1ccccc1 (stereo not given) |  | active: 29.1 µM
24 | COCCN(C(=O)c1ccco1)c1nnc(-c2ccc(F)cc2)s1 | inactive: -8.18% | 
25 | O=C(CN1CCN(c2ccccc2O)CC1)Nc1cc(S(=O)(=O)N2CCCC2)ccc1Cl |  | active: 0.259 µM

Row | SMILES | lipid storage change, negative = inhibition | Potency
26 | CCOC(=O)c1ccc(NC(=O)CCc2ccc(CC)o2)cc1 | inconclusive: 20.4% | 
27 | Cc1sc2ncnc(SCC(=O)c3ccc4c(c3)OCCO4)c2c1-c1ccccc1 | inconclusive: 18.5% | 
28 | Cc1cc(OCC(=O)N2CCC[C@@H]2C(=O)O)c2c(C)c(C)c(=O)oc2c1 | inconclusive: -6.55% | 
29 | N#Cc1ccc(C(=O)NC2CCCCCCC2)cc1 | inconclusive: -45.7% | 
30 | Cc1c(C(=O)Nc2ccccc2N2CCOCC2)sc2nc3n(c(=O)c12)CCC3 | inconclusive: 24.2% | 
31 | COCCN(Cc1ccccc1)C(=O)c1ccc(C(=O)c2ccccc2)cc1 | inconclusive: 6.11% | 
32 | CCCCOc1ccc(CSc2ncn[nH]2)cc1 |  | inconclusive: 6.51 µM [activator, single point]
33 | C/C(=N\N=c1/scc(C)n1Cc1ccco1)c1cccc([N+](=O)[O-])c1 | inconclusive: -15.6% | 
34 | Cc1cc(C)c2nc(N3C(=O)C(O)=C(C(=O)c4ccco4)C3c3ccco3)sc2c1 (stereo not given) |  | inconclusive: 0.58 µM [activator, single point]
35 | COc1ccc(/C=N/NC(=O)CN(C2=NS(=O)(=O)c3ccccc32)c2ccccc2)cc1OC | inconclusive: -20.1% | 
36 | Cc1ccc(OCc2nc(-c3ccccc3)no2)cc1 | inconclusive: 59.8% | 
37 | S=C(NCc1ccccc1)NC1CCCc2ccccc21 (stereo not given) | inconclusive: -42.6% [cytotoxic] [at 0.00295 µM] | 
38 | CCOC(=O)CSc1nc2c(c(=O)[nH]c(=O)n2C)n1C/C=C(/C)Cl |  | inconclusive: 0.291 µM [falling, full curve, poor fit]
39 | Cc1ccc(NS(=O)(=O)c2ccc(NC(=O)CN(c3cc([N+](=O)[O-])ccc3C)S(C)(=O)=O)cc2)c(C)c1 | inconclusive: -46.4% | 
40 | CN(C)C(=O)c1ccc(NC(=O)COC(=O)/C=C/c2cccs2)cc1 | inconclusive: 48.7% | 
41 | O=C1OC(/C(=C\NCc2ccccc2)[N+](=O)[O-])c2ccccc21 (stereo not given) | inconclusive: -16.9% | 
42 | COc1ccc(-n2ncc3c(NCCN4CCOCC4)ncnc32)cc1 | inconclusive: -177% | 
43 | CCOC(=O)c1c(C)[nH]c(C(=O)C(C)OC(=O)c2cnc(C)cn2)c1C (stereo not given) |  | inconclusive: 29.1 µM [falling, single point]
44 | CC1CN(C(=O)COC(=O)c2ccc(S(=O)(=O)N(C)C)cc2)CC(C)O1 (stereo not given) | inconclusive: 69.3% | 
45 | NS(=O)(=O)c1cc(C(=O)OCC(=O)N2CCOCC2)ccc1Cl | inconclusive: 2.53% | 
46 | CC1CC(C)CN(C(=O)COC(=O)c2c[nH]c3ccccc23)C1 (stereo not given) |  | active: 0.92 µM
47 | COc1ccc(C(=O)NC(=S)NCc2cccnc2)cc1Br | inconclusive: -9.33% | 
48 | CCCCCCc1nc(C(N)=O)c2[nH]c(=O)n(-c3ccc(OCC)cc3)c2n1 |  | inconclusive: 6.51 µM [falling, single point]
49 | COc1cccc(C(=O)NCCCNC(=O)c2cccnc2)c1 |  | inconclusive: 6.51 µM [activator, single point]
50 | Cc1c(C(=O)NC(C)CN2CCCCC2)oc2ccccc12 (stereo not given) | inconclusive: -20.7% | 

Taken from above.
lipid storage change, negative = inhibition, O=C1OC(/C(=C\NCc2ccccc2)[N+](=O)[O-])c2ccccc21 (stereo not given) reads inconclusive: -16.9%
lipid storage change, negative = inhibition, Cc1ccc(NS(=O)(=O)c2ccc(NC(=O)CN(c3cc([N+](=O)[O-])ccc3C)S(C)(=O)=O)cc2)c(C)c1 reads inconclusive: -46.4%
lipid storage change, negative = inhibition, Cc1sc2ncnc(SCC(=O)c3ccc4c(c3)OCCO4)c2c1-c1ccccc1 reads inconclusive: 18.5%

— PubChem BioAssay AID2685 (National Center for Advancing Translational Sciences (NCATS), 2010)
